The values below come from PMC8677339.

Sequences of proteins named here, by UniProt entry; tags and fusion partners are left off. Residues count along the entry.
UniProt Q9UN70, residues 32-934: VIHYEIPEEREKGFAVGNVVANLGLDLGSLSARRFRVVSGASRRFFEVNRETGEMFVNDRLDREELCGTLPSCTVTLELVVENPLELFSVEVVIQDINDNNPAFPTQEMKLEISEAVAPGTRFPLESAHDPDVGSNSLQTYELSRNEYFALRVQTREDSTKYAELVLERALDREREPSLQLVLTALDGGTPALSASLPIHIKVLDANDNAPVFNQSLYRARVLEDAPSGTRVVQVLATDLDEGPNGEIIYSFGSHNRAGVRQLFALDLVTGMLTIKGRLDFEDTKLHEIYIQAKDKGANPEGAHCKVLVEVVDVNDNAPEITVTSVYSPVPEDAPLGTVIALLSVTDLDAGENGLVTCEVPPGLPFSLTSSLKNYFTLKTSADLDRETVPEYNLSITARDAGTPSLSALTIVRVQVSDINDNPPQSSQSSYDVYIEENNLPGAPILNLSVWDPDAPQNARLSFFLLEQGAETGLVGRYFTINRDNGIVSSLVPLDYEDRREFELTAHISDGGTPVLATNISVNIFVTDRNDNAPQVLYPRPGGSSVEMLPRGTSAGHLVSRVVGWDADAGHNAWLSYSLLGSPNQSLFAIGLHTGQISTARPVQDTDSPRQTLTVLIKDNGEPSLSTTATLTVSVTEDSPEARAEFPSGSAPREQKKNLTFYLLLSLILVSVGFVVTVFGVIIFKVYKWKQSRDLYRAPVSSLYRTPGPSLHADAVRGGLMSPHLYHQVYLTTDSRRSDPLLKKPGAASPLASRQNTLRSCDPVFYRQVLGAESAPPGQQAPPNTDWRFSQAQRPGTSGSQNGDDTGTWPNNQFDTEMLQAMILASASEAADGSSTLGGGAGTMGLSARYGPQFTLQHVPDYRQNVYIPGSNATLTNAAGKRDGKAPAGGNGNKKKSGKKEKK

Results are given in words; binding and its absence hold for the method and conditions named. In cells and extracts the contact can be indirect. Some entries that bind do so weakly or less than the wild type.

One assay concerns the target T1, occludin (UniProt Q16625).
T1 sequence: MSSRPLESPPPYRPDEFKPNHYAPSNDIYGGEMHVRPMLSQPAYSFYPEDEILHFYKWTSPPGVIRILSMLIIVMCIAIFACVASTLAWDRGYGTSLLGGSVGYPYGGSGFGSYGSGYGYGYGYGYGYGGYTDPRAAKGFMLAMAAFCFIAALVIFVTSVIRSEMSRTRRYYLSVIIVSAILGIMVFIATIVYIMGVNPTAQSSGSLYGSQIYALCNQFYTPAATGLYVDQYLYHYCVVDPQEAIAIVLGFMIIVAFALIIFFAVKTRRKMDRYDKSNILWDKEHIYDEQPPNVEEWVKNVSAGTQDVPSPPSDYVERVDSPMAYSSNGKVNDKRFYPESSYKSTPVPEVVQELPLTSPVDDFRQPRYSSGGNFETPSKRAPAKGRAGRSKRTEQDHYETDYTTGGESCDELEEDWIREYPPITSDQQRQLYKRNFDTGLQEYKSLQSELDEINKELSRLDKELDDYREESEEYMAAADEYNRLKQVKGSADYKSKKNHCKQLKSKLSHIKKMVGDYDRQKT
Put plainly: co-IP; cDNAs of PCDHGC3 and occludin co-transfected into mammalian cells; immunoprecipitated with anti-occludin antibody; Western blot; non-immunoprecipitated cell lysate as control.

Assay [1] addresses T2, claudin-5 (bovine (endogenous in primary bovine retinal endothelial cells)) (UniProt Q2HJ22).
T2 sequence: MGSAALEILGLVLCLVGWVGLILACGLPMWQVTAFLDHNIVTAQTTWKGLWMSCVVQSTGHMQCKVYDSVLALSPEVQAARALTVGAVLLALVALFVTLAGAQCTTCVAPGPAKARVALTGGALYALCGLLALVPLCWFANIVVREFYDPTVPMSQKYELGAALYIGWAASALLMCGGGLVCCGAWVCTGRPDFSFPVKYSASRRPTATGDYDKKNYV
The assay can be described thus: co-IP; co-immunoprecipitation of endogenous protein in primary bovine retinal endothelial cells (BREC); interaction most abundant with VEGF/norrin co-stimulation.

On to “protocadherin gamma C3 (PCDHGC3) (from UniProt Q9UN70 32-934)”, for which, in the assay with occludin, the binding entry is reported as “binds”.

B1: disheveled-1 (Dvl1) (protein, UniProt F1N6M9 1-647)
chain: MPSCPASTAVWSPGWFWLRVLTRMQGLRALMDTQTCPRLLSGQVASGTPGLPPSTRMWPAAAMGWITRLARSHWSATGGSEPDAGTVKRGIPWPGPVPAVPTAARTNGHPRGDRRRDLGLPPDSASTVLSSELESSSFIDSDEDDNTSRLSSSTEQSTSSRLIRKHKRRRRKQRLRQTDRASSFSSITDSTMSLNIITVTLNMERHHFLGISIVGQSNDRGDGGIYIGSIMKGGAVAADGRIEPGDMLLQVNDVNFENMSNDDAVRVLREIVSQTGPISLTVAKCWDPTPRSYFTIPRADPVRPIDPAAWLSHTAALTGALPRYGTSPCSSAVTRTSSSSLTSSVPGAPQLEEAPLTVKSDMGAVVRVMQLPDSGLEIRDRMWLKITIANAVIGADVVDWLYAHLEGFRERREARKYASSMLKRGFLRHTVNKVTFSEQCYYVFGDLCSNLAALNLNSGSSGASDQDTLAPLPHPAAPWPLGQGYPYQYPGPPPCFPPAYQDPGFGYGSGSAGSQQSEGSKSSGSTRSAGGSSRRALGREKESRSAGAGGSGSESDHTVPSGAGGSGWRERPPSQLSRGSSPRSQASAAAPGLPPLHPLTKAYSVVGGPPGGPPVRELAAVPPELTGSRQSFQKAMGNPCEFFVDIM
For B1, the binding entry in assay [1] was “binds”.
